# Laboratory results reported in PubChem BioAssay AID1508600 (Functional Genomics Laboratory (NCATS/FGL), 2020).
# The whole screen tested about 53,000 sequences, of which about 3,700 (7%) were called active.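 Rule for the calls: active = gene knockdowns whose robust z-score for IL-1 alpha signal is at least 2 or at most -2, so actives lie on both sides; inactive = the rest.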 Some of the results follow.
# Experiment: Components of the Cytosolic LPS Sensing Pathway: Gene Identification via Genome-wide siRNA Screen;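 note: robust z of the log signal after scaling to non-targeting control siRNA wells of the plate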
# Details: RAW264.7 macrophages, IL-1a HTRF, actives lie on both sides, screened at 100 nM (by protocol), cells primed 5 h with Pam3CSK4 first
# Outline: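 Using IL-1a HTRF as read-out, the screen measured release from RAW264.7 cells after 48h siRNA knockdown (100 nM), 5 h Pam3CSK4 priming and 24 h cytosolic LipidA. Values were expressed relative to negative-control wells as robust z-scores.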
row,Sequence,z-score
1,GGAUAGUCAGAAAUGGAAATT against Chmp4c,inactive: -0.43
2,CCGUCACUAUACCCAAGUUTT against Olfr802,inactive: -0.582
3,GGGUCAUCCUCUAUGCAGUTT against Taar6,inactive: -0.266
4,GGACACAAUACCACUGACCTT against Mapk1ip1,inactive: -0.415
5,GCCAACCUACUGAGUCUCATT against Ccdc12,inactive: -0.657
6,GGCCAUGAAUAUGGAGUCCTT against Cptp,inactive: 0.623
7,GGGAACAGAAGUUGUGAGATT against Gulp1,inactive: 1.5
8,CGUGGAAGCUGUGUUAUCUTT against Il34,inactive: -0.112
9,GGUGUUACAGAUGUACCGATT against Nfkbid,inactive: 0.0859
10,GGCUCUGAGAUCUAUGAAATT against Dop1b,inactive: -0.953
11,GCACAAUUAUGAGAGUGCATT against Grin1,inactive: -0.91
12,GGUUUUGGAGAGAAUUGCCTT against Cog2,inactive: -0.468
13,CCACUGAUGACAUGACUCUTT against Vmn1r178,inactive: 1.59
14,GGGCUAGUUUCUUUUUUUGTT against Nipal4,inactive: -0.128
15,GGUGCGUAACUUAUUUUUATT against Wdr77,inactive: 1.45
16,GCAGUGUUGUCAAAACUUGTT against Mtfmt,inactive: 1.54
17,GGACUAUGUGGCCCAGUGUTT against Nat8f5,inactive: -1.11
18,GGGUUAAGUACAGAAGAUCTT against Cask,inactive: -1.41
19,GCUACGAGCAGAUGAUGGATT against Spc24,inactive: 0.254
20,GGACUUAUCGGUUAUCUUUTT against Nap1l2,inactive: 1.12
21,GCUGUUGUGUGAGGUAACCTT against Lag3,inactive: -1.98
22,CCUGUUCUCUCACCAUCAUTT against Olfr1026,inactive: -0.562
23,UCUCCUUCAUUCCAUGUAUTT against Olfr441,active: -2.18

row,Sequence,z-score
1,GCGGCCGAAAUUUAUGAGGTT against U2surp,inactive: 0.382
2,GGAAGAGGAUGAGUUAGGGTT against Ppp1r1b,inactive: -1.24
3,GGGCAUUUGCUGUAAAUUATT against Hace1,inactive: 0.611
4,GCGGAGGAGUUUUCUUCGATT against Susd4,inactive: 0.93
5,AAGGUUUGGAAACUCAUUGTT against Zbtb25,inactive: -1.77
6,GCAUGUUUUCCACACCGGUTT against Vmn1r44,inactive: -0.135
7,GCUUUUAGAAUAAAGCUGATT against Fgl2,inactive: 0.75
8,GGGUGUUCCAGAAGUAUCUTT against Lars2,inactive: -1.76
9,GCUACAGUAGUAAGACUAATT against Usp53,active: 2.67
10,GGUGGCUGUACUUUUGAUGTT against Ptprk,inactive: -0.0561
11,GGUCCCUCUACCCAAAGUUTT against Nsa2,inactive: -0.115
12,GGCUUAAGUAUUUUUCUGATT against Aktip,inactive: -0.269
13,CCAGUCGUGAACUUGAAAGTT against Gtf3c6,inactive: -0.935
14,CCGAUAAUGCUUUCUUUGGTT against Ppp1cc,inactive: 0.547
15,CGGAAAUCGGCAAGCUUCUTT against Dtymk,inactive: -0.306
16,GGUCUUGGACUUGUAUUACTT against Pcdha4,inactive: -0.486
17,CCAAAACUUCCUGUGGUUCTT against Mfsd13a,inactive: 0.334
18,GGAUCUGUACAAGACUUAUTT against Olfr800,inactive: -0.011
19,GGGUCAAAAAGUCAAAUCUTT against Vmn1r69,inactive: 0.997
20,GCGGUUACAAAUAUGUGGGTT against Yif1a,inactive: 0.818
21,GCCCAUUAUUUUCGGACUGTT against Olfr845,inactive: 1.03
22,GGGCAUGAAAGAAUUCUUATT against D130040H23Rik,active: -2.83
23,GCUUCGUGAGCAGUAUCUATT against Tpsb2,inactive: -1.03

row,Sequence,z-score
1,GGCCAUGAAGGAAUAUGAATT against Cdc37,inactive: -1.21
2,GGGACUAACUUUCACCAGGTT against Wrap73,inactive: -0.609
3,GCUGCAUUCGGUUACCACUTT against Olfml2b,inactive: 0.677
4,CCGCGUAGUGGAUACAUUUTT against Ap3m2,inactive: -0.0673
5,GGAACAAACGUGACUGUCATT against Rdh14,inactive: -0.155
6,GAUGAUCUUUCUUUCCAUCTT against Plekhh1,inactive: 0.158
7,GGACAGAUCGAAUGCCAGUTT against Pdpr,inactive: 0.821
8,GGAAACCUCAUCCAUUCCCTT against Ei24,inactive: 1.52
9,GGCUACCUUUGUUAAAUCUTT against Rab10,inactive: -0.336
10,GGACAAGGCCCUCAUGAUUTT against Nek8,inactive: -0.468
11,GCUCACUUGUAGUGCUUUATT against Arf2,inactive: 1.88
12,GAGUUGUACUCUUCACUAUTT against Olfr497,active: -2.6
13,GGAAAUAAAACAGAUUUGGTT against Atpaf1,inactive: 0.576
14,GGUGAUCAUCCAUGAAUUCTT against Chaf1a,inactive: -1.2
15,GGAUAUUCAUGUUUCAUUGTT against Vipr2,inactive: 0.836
16,GGAAUGUAAGAACCCUUGCTT against Adam19,inactive: 1.77
17,GCAUCCUCUCACUCUCAAUTT against Grin2a,active: 2.37
18,GAGGUCAUUAUACCAUUGGTT against Tuba3b,inactive: 0.554
19,GGAAUCCAACCUCUGUGAUTT against Cdca2,inactive: -0.091
20,CCAACCUCCCAUUCUGAAUTT against Ttc22,inactive: 1.71
21,GGGAGGGACUUUUAAACUUTT against Ube2n,inactive: -0.414
22,CCAACUCGGCUGUUUUUUATT against F11r,inactive: 0.149

# Taken from above:
# For z-score, GGGUGUUCCAGAAGUAUCUTT against Lars2 reads inactive: -1.76
# For z-score, GCUACGAGCAGAUGAUGGATT against Spc24 reads inactive: 0.254
# For z-score, GGGACUAACUUUCACCAGGTT against Wrap73 reads inactive: -0.609
# For z-score, GCAUCCUCUCACUCUCAAUTT against Grin2a reads active: 2.37
# For z-score, GGCCAUGAAUAUGGAGUCCTT against Cptp reads inactive: 0.623
